These results are taken from paper PMC7819943, “Rice protein-binding microarrays: a tool to detect cis-acting elements near promoter regions in rice”.

Chains of the proteins cited; added tags and fusions are not shown.
UniProt Q0JBA9, entry or part of it: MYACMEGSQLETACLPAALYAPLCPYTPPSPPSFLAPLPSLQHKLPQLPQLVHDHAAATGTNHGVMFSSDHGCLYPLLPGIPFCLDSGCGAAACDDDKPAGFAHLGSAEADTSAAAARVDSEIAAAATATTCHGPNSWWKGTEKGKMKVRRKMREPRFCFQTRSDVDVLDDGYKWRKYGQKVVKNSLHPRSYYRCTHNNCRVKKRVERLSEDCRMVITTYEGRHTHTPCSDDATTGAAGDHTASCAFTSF

This is one part of the list.

In this experiment the target is OsWRKY34 (Oryza sativa, UniProt Q0JBA9 1-250). Nature of the experiment: protein-binding microarray (RPBM); PBS, 2% BSA, 51.3 ng/ul salmon testes DNA, 50 uM zinc acetate, 200 nM TF, 25 C, 1 h; high values mean tight binding. Particulars: protein: recombinant; tags: N-terminal polyhistidine and DsRed monomer fusion (pET32a); label: CyDye5-dUTP incorporated in the synthesized complementary strand; 3' TTTTT single-stranded linker to array surface; dsDNA, one strand shown. Put shortly:
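Transcription factors were made in E. coli BL21-CodonPlus as N-terminal fusions to a polyhistidine tag and DsRed, then purified on Ni–NTA. After primer extension with Cy5-dUTP and blocking with 2% BSA, a custom Agilent array was exposed for 1 h at 25 °C to 200 nM protein in PBS, 2% BSA, salmon testes DNA and 50 µM zinc acetate. Washed arrays were scanned on an Axon 4000B, and the binding signal is per-feature fluorescence intensity in arbitrary units.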
In the case of “CTAACATTGATTGGGAGCATTATTTACTACTACCCTCTTTCGGAGTCACCTAGTGCAG”, the binding signal was 8250 fluorescence intensity (a.u.).
Take “CATGATGAAAAATTTTAGGGTGGGATCTAAACAGGGCCTTCGGAGTCACCTAGTGCAG”: the binding signal was 8860 fluorescence intensity (a.u.).
Regarding “ACCATCCCTACCCGCCCTATGCCGTTACCACCATAGTTCCCGGAGTCACCTAGTGCAG”, the binding signal was 15100 fluorescence intensity (a.u.).
Take “CAATAGAATGCACTTTTGGTTAATGTTTACTCCTAATTTCCGGAGTCACCTAGTGCAG”: the binding signal was 8390 fluorescence intensity (a.u.).
As for “TTTTGCATTAATTTGATCAAAGCAGTTGTATTGTTGTGAACGGAGTCACCTAGTGCAG”, the binding signal was 9600 fluorescence intensity (a.u.).
Take “GCGGCGTTGCGGATGGGGACGGGGACGGGGACGGCGGCGACGGAGTCACCTAGTGCAG”: the binding signal is 10400 fluorescence intensity (a.u.).
For “CGTTACCGTATTCGCGCCGGTTCGTTTTCGCTCCGTTTTCCGGAGTCACCTAGTGCAG”, the binding signal was 8760 fluorescence intensity (a.u.).
Turning to “AACGCCGCCACCTTCTAGTCGTATTTTTTTTTCAGAATTCCGGAGTCACCTAGTGCAG”, the binding signal was 9150 fluorescence intensity (a.u.).
Take “TGACCTGATCAGATGAGCTTATCATTTCCCGCACGGTTCACGGAGTCACCTAGTGCAG”: the binding signal is 8790 fluorescence intensity (a.u.).
In the case of “TCGCTGCTCTGCCTCGTCGCCTCACGCCGCCGCCGCCGGCCGGAGTCACCTAGTGCAG”, the binding signal was 8620 fluorescence intensity (a.u.).
On to “ATCATCTTTTTTCTATTGTTGGTACATGTTCTTATATATTCGGAGTCACCTAGTGCAG”, for which the binding signal was 13100 fluorescence intensity (a.u.).
As to “GCTCCTCCCCACAGCTGTCGTCGCGTCAACCCATTATCCTCGGAGTCACCTAGTGCAG”, the binding signal is 8110 fluorescence intensity (a.u.).
On to “TACAAATTCACTGACTGGCTGTTCCTTTGCCTGGATTATACGGAGTCACCTAGTGCAG”, for which the binding signal is 9150 fluorescence intensity (a.u.).
With “GCTTTGTGCGCGGGGCGTCTCGTTTGTCTTTGCCGTTTCGCGGAGTCACCTAGTGCAG” the figure was 8170 fluorescence intensity (a.u.); with “ATCCTCTATAGCCGTGTTTAGTTGCAAAATTTTTCTTCAACGGAGTCACCTAGTGCAG”, 12100 fluorescence intensity (a.u.); with “TCCGCTCGTTCCTCTCCCGACGAGGGTGGGTGGGGTGGGGCGGAGTCACCTAGTGCAG”, 22700 fluorescence intensity (a.u.).
On to “AGTCCGACTTTTCCTTTTTTTTTTCCGTGTTTTCCGTTTCCGGAGTCACCTAGTGCAG”, for which the binding signal was 14800 fluorescence intensity (a.u.).
For “CACTGTTGGAACATTGGATTTCATGTCGCTGTCAATGGCTCGGAGTCACCTAGTGCAG”, the binding signal is 9000 fluorescence intensity (a.u.).
Take “CGTTGATTACAGGCACGCGCTGCCATTTCCTATAAATACACGGAGTCACCTAGTGCAG”: the binding signal is 8060 fluorescence intensity (a.u.).
Turning to “TATATTAAGCATCTTATCGTTTGACCACACAACATATACGCGGAGTCACCTAGTGCAG”, the binding signal is 9500 fluorescence intensity (a.u.).
For “CCTAATGACGAACTTATATGCCTACTTTGTGATCTATCTCCGGAGTCACCTAGTGCAG”, the binding signal was 9110 fluorescence intensity (a.u.).
Turning to “CACGCCATTTTTTCGCTCGCTCGCTCGCCTCGTGCCCACGCGGAGTCACCTAGTGCAG”, the binding signal is 14100 fluorescence intensity (a.u.).
Regarding “TGTTTATTGTGGTACTGGTTGGTACGATTCATCATTTCAACGGAGTCACCTAGTGCAG”, the binding signal was 8400 fluorescence intensity (a.u.).
With “CTTTTGTTTTTCGTTAAAGGCATATATTTTGCGACCCCAACGGAGTCACCTAGTGCAG”, the binding signal was 8280 fluorescence intensity (a.u.).
Take “ATTTTTAAAGCAACTTTCTTGTACATTTCTTTGCAAAGCGCGGAGTCACCTAGTGCAG”: the binding signal was 8410 fluorescence intensity (a.u.).
Regarding “GCGGTGGTGGTGGGCTTAGTGGAGGCGGAGGCGGCTGAGGCGGAGTCACCTAGTGCAG”, the binding signal was 17400 fluorescence intensity (a.u.).
For “GATCCTAACACTAAGTCGTCAACCGTGAACACTTCCTTGACGGAGTCACCTAGTGCAG”, the binding signal was 8730 fluorescence intensity (a.u.).
The result for “CCTCGTTGCCATCTGTCTTAACCAATCTTGTTGCTGAAAGCGGAGTCACCTAGTGCAG” reads 9690 fluorescence intensity (a.u.).
With “CCCTTTCTCTCTGTTGTTGCAGTCTTGCAGCTGCCCGATTCGGAGTCACCTAGTGCAG”, the binding signal is 8240 fluorescence intensity (a.u.).
With “ATATTAGGTGGTATCAAATTTTCATCTACGGGGTTGTTTACGGAGTCACCTAGTGCAG”, the binding signal was 8090 fluorescence intensity (a.u.).
As to “CTCGCCCCATTTCCTCTCGCCGCCGGCGCGTCGGCGCCGCCGGAGTCACCTAGTGCAG”, the binding signal was 8990 fluorescence intensity (a.u.).
Regarding “TGAATCTTTGGTCATCTAGTTGTTCATTAGTATCATTTACCGGAGTCACCTAGTGCAG”, the binding signal was 9670 fluorescence intensity (a.u.).
For the sequence “ACTACTCACTCTTCATTGCTTTTTTTTTTCTCTCTCTAGCCGGAGTCACCTAGTGCAG”, the binding signal is 9600 fluorescence intensity (a.u.).
The result for “TTGACCTTTTTAAAACATTTTTGACCGTTCGTCTTATTCACGGAGTCACCTAGTGCAG” reads 10600 fluorescence intensity (a.u.); that for “CTAGCCCTTGCTTCATTTTACGTGTTGGGAGGGAAGGGGTCGGAGTCACCTAGTGCAG”, 10900 fluorescence intensity (a.u.).
As for “CATGTTTTCTTAGAGCTCTCTTTCATATTTATCTATTTCTCGGAGTCACCTAGTGCAG”, the binding signal was 11300 fluorescence intensity (a.u.).
For “GGCGGGGCGGTGTGTTACAGGGGAATTACTCGGGTCAACACGGAGTCACCTAGTGCAG”, the binding signal is 8200 fluorescence intensity (a.u.).
With “CCTATTTTTGGCCCAGAACTCCAATTCCATCACATACAATCGGAGTCACCTAGTGCAG” the figure was 8370 fluorescence intensity (a.u.).
The result for “TCGTTGGTGGGTAGGTGGTGGAGATGGTGGTGGCGGCGGGCGGAGTCACCTAGTGCAG” reads 15600 fluorescence intensity (a.u.); that for “TTTTCCCGTATTCCATGAGCCCCAAAAAATACGGTATTCCCGGAGTCACCTAGTGCAG”, 8200 fluorescence intensity (a.u.).
As for “ACCTCTATCCAGATTCATTGTACTAGAGTATGTCACATCCCGGAGTCACCTAGTGCAG”, the binding signal is 8680 fluorescence intensity (a.u.).
As for “CAACTTTTACTAGCGTGTCAAATTCTTTTCCGAAATTCAACGGAGTCACCTAGTGCAG”, the binding signal was 8700 fluorescence intensity (a.u.).
